We go through one substance from PMC6141617.

Sequences of proteins named here, by UniProt entry; tags and fusion partners are left off. Residues count along the entry.
UniProt P31946, residues 1-239: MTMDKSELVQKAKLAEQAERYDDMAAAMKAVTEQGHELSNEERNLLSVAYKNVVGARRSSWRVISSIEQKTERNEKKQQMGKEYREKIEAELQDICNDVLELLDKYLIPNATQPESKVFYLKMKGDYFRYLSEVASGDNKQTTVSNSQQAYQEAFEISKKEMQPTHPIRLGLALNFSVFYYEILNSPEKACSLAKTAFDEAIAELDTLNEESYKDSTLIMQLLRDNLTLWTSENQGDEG

This experiment deals with T1, GFP-ExoS^233–419 (Pseudomonas aeruginosa) (UniProt G3XDA1).
T1 sequence: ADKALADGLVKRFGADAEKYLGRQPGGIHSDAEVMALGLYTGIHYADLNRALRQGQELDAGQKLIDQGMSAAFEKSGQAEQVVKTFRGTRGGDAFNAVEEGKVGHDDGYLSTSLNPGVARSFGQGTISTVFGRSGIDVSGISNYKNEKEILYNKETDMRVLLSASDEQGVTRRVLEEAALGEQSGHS
Description: fluorescence polarisation; both purified. On the technique in general: Polarisation of emitted light reports the rotation of a fluorescent probe.

Results are given in words; binding and its absence hold for the method and conditions named. Some binding calls cover weakened binding; strength is not graded here. Tags and fused reporters may be left off the sequences shown.

Consider “14-3-3β (purified alone) (from UniProt P31946 1-239)”, for which the binding entry was “binds”.
